Source: PubChem BioAssay AID1259264 (Sanger Institute, 2017)

Purpose: 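Kinases whose loss cuts CL40 colorectal cancer cell survival, alone or with drugs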 (primary screen)
Cells: CL40 human colorectal cancer cells
Reagents: siRNA pool against human genes
Treatment: DMSO, or an anchor drug: BYL719 at 1 µM, cetuximab at 5 µg/ml, or trametinib at 10 nM
Measured: 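Viability as a fraction of non-targeting pool control (replicates averaged), control-based robust z-score, plus averaged synergy for each drug: BYL719 1 µM, cetuximab 5 µg/ml, trametinib 10 nM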
Scale: robust z-score, siRNA alone and viability, siRNA alone: higher = more viable cells
Units: viability, siRNA alone in fraction of control
Call rule: 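a gene counts as essential when knock-down without drug gives a robust z-score below -3, meaning fewer cells; synergy scores play no part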
Calls: active = essential (lowers viability alone); inactive = not essential
Here is a random part of 794 deposited reagents. 15 of all reagents (1.9%) count as active. 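Calls rest on knock-down alone at z-score below -3; synergy scores with the three drugs do not decide them.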 No viability above 1 is reported: the scale is capped. Further read-outs or replicates are left out here. Not stated in the record: the amount of reagent, the time to read-out.

For ARAF, the entry reads robust z-score, siRNA alone 0.539; viability, siRNA alone 1; inactive. MAP3K21 gave robust z-score, siRNA alone 0.539; viability, siRNA alone 1; inactive. With knock-down of NME4, the screen gave robust z-score, siRNA alone -0.716; viability, siRNA alone 0.91; inactive. For WEE1, the values are robust z-score, siRNA alone -0.576; viability, siRNA alone 0.92; inactive. Depletion of EPHA2 resulted in: robust z-score, siRNA alone 0.539; viability, siRNA alone 1; inactive. With knock-down of RIPK4, the record shows robust z-score, siRNA alone 0.455; viability, siRNA alone 0.994; inactive.

Depletion of MED12 came out at: robust z-score, siRNA alone 0.41; viability, siRNA alone 0.991; inactive. EFNA3 showed robust z-score, siRNA alone 0.0601; viability, siRNA alone 0.966; inactive. Depletion of MAPKAPK3 came out at: robust z-score, siRNA alone 0.0986; viability, siRNA alone 0.968; inactive. For MAPK1, the values are robust z-score, siRNA alone 0.301; viability, siRNA alone 0.983; inactive.

Sorted by “robust z-score, siRNA alone” (ascending): some entries from above
RIPK4 → robust z-score, siRNA alone: 0.455; viability, siRNA alone: 0.994; outcome: inactive
EPHA2 → robust z-score, siRNA alone: 0.539; viability, siRNA alone: 1; outcome: inactive

Additional entries follow:
After knock-down of CSNK1A1L the results were robust z-score, siRNA alone 0.539; viability, siRNA alone 1; inactive. After knock-down of STKLD1 the results were robust z-score, siRNA alone -1.54; viability, siRNA alone 0.851; inactive. Against HK2, the entry reads robust z-score, siRNA alone 0.0166; viability, siRNA alone 0.963; inactive. DNMT3A scored robust z-score, siRNA alone -0.525; viability, siRNA alone 0.924; inactive. NUP62 scored robust z-score, siRNA alone -1.15; viability, siRNA alone 0.879; inactive. After knock-down of DAPK2, the screen gave robust z-score, siRNA alone -0.0218; viability, siRNA alone 0.96; inactive.

MARK1 scored robust z-score, siRNA alone 0.539; viability, siRNA alone 1; inactive. Depletion of MYO3B came out at: robust z-score, siRNA alone 0.539; viability, siRNA alone 1; inactive. CAMK1 showed robust z-score, siRNA alone 0.298; viability, siRNA alone 0.983; inactive.
